Data published in article PMC8230603.
For some of these results: The comparison behind a weaker result is the experiment's own reference, which may not be listed here. For some of these results: Construct, isoform or probe ends are uncertain for at least one entry. For some of these results: At least one verdict was read from the data and is not stated in words by the source.

Columns and labels:
[1] = molecular target: Rad52-1-226 V95I (Saccharomyces cerevisiae) (UniProt P06778); assay: EMSA; details: 5 mM MgCl2, still binds at 0.05 uM, 10 mM Tris-HCl pH 8, 5 mM MgCl2, 100 mM NaCl, 37 °C, 10 min, 0.27 µM Cy5-DNA (nt per Fig 6 legend), 8% native PAGE, recombinant protein, residues 1-226
[2] = molecular target: Rad52-1-226 (Saccharomyces cerevisiae) (UniProt P06778); assay: EMSA; details: 5 mM MgCl2, 10 mM Tris-HCl pH 8, 5 mM MgCl2, 100 mM NaCl, 37 °C, 10 min, 0.27 µM Cy5-DNA (nt per Fig 6 legend), 8% native PAGE, recombinant protein, residues 1-226
[3] = label: 5'-Cy5, single-stranded DNA

TGGGTGAACCTGCAGGTGGGCAAAGATGTCCTAGCAATGTAATCGTCAAGCTTTATGCCGTT (double strand) [XV2 dsDNA]
binding result ([1]; label: 5'-Cy5 on strand 1): binds more weakly | binding result ([2]; label: 5'-Cy5 on strand 1): binds

TGGGTGAACCTGCAGGTGGGCAAAGATGTCCTAGCAATGTAATCGTCAAGCTTTATGCCGTT [XV2 ssDNA]
binding result [1, 3]: binds more weakly | binding result [2, 3]: binds
